# Assay results from PubChem BioAssay AID248 (DTP/NCI, 2004).
# The list is a part of this screen's results and no random one: it is rich in T/C values a quarter to a half above the control, in often repeated tests (any T/C) and in doses without a T/C. Other doses and runs of a compound stand elsewhere. T/C is the treated group as % of the vehicle group. Some entries give survivors of the animals treated and no T/C: the source holds a T/C of zero for them, seemingly a mark for toxic or unscored doses. Some doses without a T/C left all or most animals alive at the check, yet need not have been tolerated: the source hardly ever lists a survival T/C far under the control, and the zero likely stands for such cases as well. Counts of survivors are from the toxicity check (mostly the fifth day) where no day follows; animals may have died later. Schedule codes are those of the source, read here as Q, the interval in days (D) or hours (H), X, the number of doses. Some schedules carry Z or #; the key to these is not given. Some molecules as drawn cover several salts, stereoisomers or complexes of the source; a dose is that of the sample tested. Some doses were run more than once; the results are listed from low to high. Where survival is the endpoint, the PubChem record calls one and a half times the control and up active, and a quarter to a half above the control has no call in these data; cut-offs in other NCI protocols can differ. Some T/C values are followed by the survivors on the day toxicity was checked, most often the fifth; where none is given, no animal had died by that day.
# Tested on: L1210 leukemia ip in BDF1 mice, survival T/C
# Assay: NCI In Vivo Anticancer Drug Screen. Data for tumor model L1210 Leukemia (intraperitoneal) in B6D2F1 (BDF1) mice
# Settings: T/C endpoint: mean survival time, higher T/C = longer survival
# [1] = dose: 80.0 mg/kg/injection, schedule: Q04DX002 (ip), vehicle: Klucel (hydroxypropylcellulose) (HPC)
# [2] = dose: 96.0 mg/kg/injection, schedule: Q03DX Z (ip), vehicle: saline
compound,measurement,setting,value
O=C(Nc1ccc(C2=NCCN2)cc1)c1ccc(C(=O)Nc2ccc(C3=NCCN3)cc2)c(Cl)c1,survivor count,"dose: 50.0 mg/kg/injection, schedule: Q01DX009 (ip), vehicle: saline with Tween-80",4 of 6
same,survivor count,"dose: 50.0 mg/kg/injection, schedule: Q01DX010 (ip), vehicle: carboxymethylcellulose (CMC)",8 of 10
same,survivor count,"dose: 50.0 mg/kg/injection, schedule: Q01DX010 (ip), vehicle: other",3 of 10
same,T/C,"dose: 50.0 mg/kg/injection, schedule: Q01DX010 (sc), vehicle: olive oil, sesame oil, peanut oil",133 % of control
same,T/C,"dose: 54.0 mg/kg/injection, schedule: Q## X032 (ip), vehicle: carboxymethylcellulose (CMC)",140 % of control [9 of 10 alive]
same,T/C,"dose: 56.0 mg/kg/injection, schedule: Q01DX009 (ip), vehicle: Klucel (hydroxypropylcellulose) (HPC)",134 % of control
same,T/C,"dose: 59.0 mg/kg/injection, schedule: Q02DX010 (ip), vehicle: carboxymethylcellulose (CMC)",144 % of control
same,T/C,"dose: 63.0 mg/kg/injection, schedule: Q01DX001 (ip), vehicle: carboxymethylcellulose (CMC)",130 and 137 % of control [8 of 10 alive]
same,T/C,"dose: 63.0 mg/kg/injection, schedule: Q01DX001 (ip), vehicle: other",129 [9 of 10 alive] and 139 % of control
same,survivor count,"dose: 64.0 mg/kg/injection, schedule: Q01DX010 (ip), vehicle: other",0 of 8
same,survivor count,"dose: 64.0 mg/kg/injection, schedule: Q01DX010 (ip), vehicle: saline",4 of 6 and 5 of 6
same,survivor count,"dose: 64.0 mg/kg/injection, schedule: Q01DX010 (ip), vehicle: water",0 of 6
same,survivor count,"dose: 64.0 mg/kg/injection, schedule: Q01DX Z (ip), vehicle: saline",0 of 6 and 6 of 6
same,T/C,"dose: 64.0 mg/kg/injection, schedule: Q01DX Z (sc), vehicle: steroid suspending solution",126 % of control
same,survivor count,"dose: 65.0 mg/kg/injection, schedule: Q01DX Z (sc), vehicle: carboxymethylcellulose (CMC)",6 of 6
same,T/C,"dose: 67.0 mg/kg/injection, schedule: Q01DX001 (ip), vehicle: carboxymethylcellulose (CMC)",127 and 139 % of control
same,T/C,"dose: 67.5 mg/kg/injection, schedule: Q02DX010 (ip), vehicle: carboxymethylcellulose (CMC)","98, 106, 109, 137, 142, 145, 153 % of control"
same,T/C,"dose: 74.0 mg/kg/injection, schedule: Q01DX001 (ip), vehicle: carboxymethylcellulose (CMC)",131 % of control
same,survivor count,"dose: 75.0 mg/kg/injection, schedule: Q01DX015 (ip), vehicle: carboxymethylcellulose (CMC)",0 of 10 and 1 of 10
same,T/C,[1],"146 [5 of 6 alive], 147, 154 % of control"
same,survivor count,[1],3 of 6
same,survivor count,"dose: 81.0 mg/kg/injection, schedule: Q02DX010 (ip), vehicle: other",6 of 6
same,survivor count,"dose: 88.0 mg/kg/injection, schedule: Q02DX008 (ip), vehicle: carboxymethylcellulose (CMC)",1 of 10 and 2 of 10
same,survivor count,"dose: 96.0 mg/kg/injection, schedule: Q01DX001 (ip), vehicle: carboxymethylcellulose (CMC)",5 of 10
same,survivor count,"dose: 96.0 mg/kg/injection, schedule: Q01DX001 (ip), vehicle: other",3 of 10
same,T/C,[2],145 % of control
same,survivor count,[2],2 of 6
same,survivor count,"dose: 100.0 mg/kg/injection, schedule: Q01DX001 (im), vehicle: steroid suspending solution",2 of 6
same,survivor count,"dose: 100.0 mg/kg/injection, schedule: Q01DX001 (ip), vehicle: carboxymethylcellulose (CMC)",0 of 10 and 6 of 10
same,survivor count,"dose: 100.0 mg/kg/injection, schedule: Q## X004 (ip), vehicle: carboxymethylcellulose (CMC)",1 of 10 and 3 of 10
same,T/C,"dose: 101.25 mg/kg/injection, schedule: Q02DX010 (ip), vehicle: carboxymethylcellulose (CMC)","66, 72, 73, 76, 93, 106 % of control [4 of 5 alive]"
same,survivor count,"dose: 110.0 mg/kg/injection, schedule: Q01DX001 (ip), vehicle: carboxymethylcellulose (CMC)",0 of 10 and 4 of 10
same,survivor count,"dose: 125.0 mg/kg/injection, schedule: Q01DX Z (sc), vehicle: steroid suspending solution",7 of 7
same,survivor count,"dose: 128.0 mg/kg/injection, schedule: Q01DX010 (ip), vehicle: saline",0 of 6
same,survivor count,"dose: 128.0 mg/kg/injection, schedule: Q01DX Z (ip), vehicle: saline",0 of 6
same,survivor count,"dose: 132.0 mg/kg/injection, schedule: Q02DX008 (ip), vehicle: carboxymethylcellulose (CMC)",0 of 10
same,survivor count,"dose: 135.0 mg/kg/injection, schedule: Q02DX010 (ip), vehicle: carboxymethylcellulose (CMC)",10 of 10
same,survivor count,"dose: 144.0 mg/kg/injection, schedule: Q01DX001 (ip), vehicle: carboxymethylcellulose (CMC)",1 of 10 and 2 of 10
same,survivor count,"dose: 144.0 mg/kg/injection, schedule: Q01DX001 (ip), vehicle: other",0 of 10 and 2 of 10
same,survivor count,"dose: 150.0 mg/kg/injection, schedule: Q01DX001 (ip), vehicle: carboxymethylcellulose (CMC)",0 of 10 and 5 of 10
same,survivor count,"dose: 160.0 mg/kg/injection, schedule: Q01DX001 (ip), vehicle: saline",0 of 6
same,survivor count,"dose: 180.0 mg/kg/injection, schedule: Q## X032 (ip), vehicle: carboxymethylcellulose (CMC)",4 of 10 and 5 of 10
same,survivor count,"dose: 192.0 mg/kg/injection, schedule: Q03DX Z (ip), vehicle: saline",0 of 6
same,survivor count,"dose: 200.0 mg/kg/injection, schedule: Q01DX001 (im), vehicle: steroid suspending solution",0 of 6
same,survivor count,"dose: 216.0 mg/kg/injection, schedule: Q01DX001 (ip), vehicle: carboxymethylcellulose (CMC)",0 of 10
same,survivor count,"dose: 216.0 mg/kg/injection, schedule: Q01DX001 (ip), vehicle: other",0 of 10
same,survivor count,"dose: 224.0 mg/kg/injection, schedule: Q07DX Z (ip), vehicle: saline",0 of 6 and 1 of 6
same,survivor count,"dose: 225.0 mg/kg/injection, schedule: Q01DX001 (ip), vehicle: carboxymethylcellulose (CMC)",0 of 10
same,T/C,"dose: 240.0 mg/kg/injection, schedule: Q01DX Z (oral), vehicle: methylcellulose (MC)",130 % of control
same,survivor count,"dose: 250.0 mg/kg/injection, schedule: Q01DX Z (sc), vehicle: steroid suspending solution",3 of 7
same,survivor count,"dose: 448.0 mg/kg/injection, schedule: Q07DX Z (ip), vehicle: saline",0 of 6
same,T/C,"dose: 500.0 mg/kg/injection, schedule: Q01DX010 (oral), vehicle: other",127 % of control
